No constants are given. Whether binding was seen depends on the method and setting. In cells and extracts the contact can be indirect. Sequences can lack the tags named with a protein.
Columns and labels:
GFP-SNX17 = biological target: T1, GFP-SNX17 (UniProt Q15036); assay: co-IP
T1 sequence: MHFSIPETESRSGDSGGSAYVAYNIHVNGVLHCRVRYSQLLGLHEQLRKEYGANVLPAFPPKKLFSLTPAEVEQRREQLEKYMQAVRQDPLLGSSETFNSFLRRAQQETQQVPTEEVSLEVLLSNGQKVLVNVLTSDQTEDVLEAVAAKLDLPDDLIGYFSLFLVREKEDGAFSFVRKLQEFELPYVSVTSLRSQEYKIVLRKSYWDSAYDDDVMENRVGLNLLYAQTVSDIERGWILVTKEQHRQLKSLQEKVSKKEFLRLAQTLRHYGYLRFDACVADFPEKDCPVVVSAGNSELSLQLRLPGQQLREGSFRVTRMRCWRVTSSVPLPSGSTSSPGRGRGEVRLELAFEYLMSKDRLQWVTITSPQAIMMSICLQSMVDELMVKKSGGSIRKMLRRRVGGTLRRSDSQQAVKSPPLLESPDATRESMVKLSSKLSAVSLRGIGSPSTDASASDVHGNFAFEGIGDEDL

Amino acid sequences for entries named in this document (tags omitted).
UniProt Q13596: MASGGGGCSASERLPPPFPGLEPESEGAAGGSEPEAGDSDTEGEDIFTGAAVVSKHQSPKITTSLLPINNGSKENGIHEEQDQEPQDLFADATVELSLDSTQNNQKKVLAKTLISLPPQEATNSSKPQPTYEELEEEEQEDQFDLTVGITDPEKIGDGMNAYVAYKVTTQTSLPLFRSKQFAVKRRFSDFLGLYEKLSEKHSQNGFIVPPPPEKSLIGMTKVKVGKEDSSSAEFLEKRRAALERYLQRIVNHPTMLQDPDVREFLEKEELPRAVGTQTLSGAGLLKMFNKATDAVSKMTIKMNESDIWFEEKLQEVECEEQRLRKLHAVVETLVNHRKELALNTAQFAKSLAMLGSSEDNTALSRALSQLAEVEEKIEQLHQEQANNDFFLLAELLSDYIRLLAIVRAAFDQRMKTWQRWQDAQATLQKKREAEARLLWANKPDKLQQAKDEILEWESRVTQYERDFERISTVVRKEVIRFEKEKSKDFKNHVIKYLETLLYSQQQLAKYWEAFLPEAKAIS

GFP-SNX17, Q15036 = biological target: T2, GFP-SNX17, Q15036; assay: co-IP; conditions: remark: other sources report otherwise
T2 chain: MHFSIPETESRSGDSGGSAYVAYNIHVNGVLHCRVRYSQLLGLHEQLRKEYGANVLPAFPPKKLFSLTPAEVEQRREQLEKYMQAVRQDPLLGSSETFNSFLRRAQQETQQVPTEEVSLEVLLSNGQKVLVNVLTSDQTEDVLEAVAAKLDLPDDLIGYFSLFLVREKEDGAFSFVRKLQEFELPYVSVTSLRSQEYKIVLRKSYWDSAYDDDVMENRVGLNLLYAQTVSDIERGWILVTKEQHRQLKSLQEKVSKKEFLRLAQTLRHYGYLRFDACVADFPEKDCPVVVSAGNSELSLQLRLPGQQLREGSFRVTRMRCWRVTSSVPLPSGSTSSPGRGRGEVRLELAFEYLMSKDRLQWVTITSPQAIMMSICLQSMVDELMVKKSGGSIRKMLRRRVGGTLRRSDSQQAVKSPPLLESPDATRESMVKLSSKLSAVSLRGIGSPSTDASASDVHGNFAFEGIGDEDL

endogenous SNX1 (from UniProt Q13596 1-522)
binding (GFP-SNX17): no binding

B1: endogenous SNX5, Q9Y5X3 1-404 (protein)
chain: MAAVPELLQQQEEDRSKLRSVSVDLNVDPSLQIDIPDALSERDKVKFTVHTKTTLPTFQSPEFSVTRQHEDFVWLHDTLIETTDYAGLIIPPAPTKPDFDGPREKMQKLGEGEGSMTKEEFAKMKQELEAEYLAVFKKTVSSHEVFLQRLSSHPVLSKDRNFHVFLEYDQDLSVRRKNTKEMFGGFFKSVVKSADEVLFTGVKEVDDFFEQEKNFLINYYNRIKDSCVKADKMTRSHKNVADDYIHTAACLHSLALEEPTVIKKYLLKVAELFEKLRKVEGRVSSDEDLKLTELLRYYMLNIEAAKDLLYRRTKALIDYENSNKALDKARLKSKDVKLAEAHQQECCQKFEQLSESAKEELINFKRKRVAAFRKNLIEMSELEIKHARNNVSLLQSCIDLFKNN
binding (GFP-SNX17, Q15036): no binding

From article doi:10.1101/2021.08.28.457928
